Out of some 53,000 sequences screened, about 3,700 (7%) were called active.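 The calls were made as follows: active = gene knockdowns whose robust z-score for IL-1 alpha signal is at least 2 or at most -2, so actives lie on both sides; inactive = the rest.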 The list shows a part of the results.
Experiment: Components of the Cytosolic LPS Sensing Pathway: Gene Identification via Genome-wide siRNA Screen;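 also: robust z of the log signal after scaling to non-targeting control siRNA wells of the plate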
Details: RAW264.7 macrophages, IL-1a HTRF, actives lie on both sides, screened at 100 nM (by protocol), cells primed 5 h with Pam3CSK4 first
How it was run: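 RAW264.7; siRNA 100 nM final, RNAiMAX, 48h 37 degrees C; Pam3CSK4 5 h; LipidA + TransIT-TKO 24 h; IL-1a HTRF; CellTiter-Glo viability; robust z vs negative-control median.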

Sequence | z-score
GGGAGGGUCUAUUGUUAAUTT against Cbr4 | inactive: 1.91
GGCUUUUCAGCAGGUUUAATT against Ube2g1 | active: 5.04
GGAAGAAGCAACCACAUUCTT against Evl | inactive: 0.898
CCUAUUAUAGGACAAAGUATT against Efhc2 | inactive: -0.54
GGCUUCCAUCCUUUCUUUGTT against Ilf2 | inactive: 0.167
GGAGUGGACUCACGUCUAATT against Med23 | inactive: 0.717
CCUCAAUUGGAUAAAGAAGTT against Gzma | inactive: 1.7
GGAGUUCACCACUAUCAAGTT against Spata2l | inactive: 1.6
CGAUGUUGAGGGAUUAUCUTT against Tstd2 | active: -2.25
GCGACUCACUAUUUGGGCATT against Ell3 | inactive: 0.471
CCCACUAAUAGCACUGUCCTT against Olfr746 | inactive: -0.00888
GUCCUAAAACGAGUGAGAGTT against Trib3 | inactive: -0.793
GGAAGUGGCCUUAAAGUAUTT against Arhgef37 | inactive: -1.67
GGGAAAUUAUCGCUUUAUGTT against Invs | inactive: -0.881
GGGAGAAGAUCUAAUUCAATT against Cd34 | inactive: 0.795
GCUAUUGUGGUAUGGAUUATT against Il2ra | inactive: 1.68
GGAGAUAGACAUGCCUUUCTT against Lyrm7 | inactive: 0.0684
GCGGAUUUACACCUUAUCUTT against Bpi | inactive: -1.15
GCUUAUGUCGAAUGAUAGCTT against Id2 | active: -4.22
GCAGUUUGGUCACCUACCATT against 4930583K01Rik | inactive: -0.137
GCGAAAACUUCGGAUCUAUTT against Smarcd2 | inactive: 1.29
GCAGAAGUCAGUCAUGAAUTT against Fbf1 | inactive: -1.14

Sequence | z-score
GCAGUUAACUACGUUGCAATT against Zranb2 | inactive: -0.44
CCUCUGUGAUCCCUAAGAATT against Ubd | inactive: -0.218
CCACAAGGUUCACAGAAAUTT against Calhm2 | inactive: 0.366
GGAAUAUGCCCAAGUUUUUTT against Ctnna1 | active: 2.86
CCAUCAGGUUGACGACUUUTT against Olfr90 | inactive: -0.833
GGUGAAAAGGUUGAUGUCATT against Spertl | inactive: -0.368
GCCAACAACAUCUGUUUCUTT against Fam20c | inactive: 1.09
CCCUGUUAUUAUCUUGAUUTT against Arv1 | inactive: -1.16
ACCAGCACGACAGAUGCUATT against Pla2g12a | active: 3.15
GGAAUCUAUAAAGGAGACCTT against Tmed2 | inactive: 0.344
GCUUAAGAUUGGAAUACUATT against Phf20l1 | inactive: 0.525
CCUAACACCAGGAACCAAATT against Upk2 | inactive: -0.98
GGAACUGUUAGAAAAUGGATT against Sh2d3c | inactive: -0.163
GGAAAAACAAACCUAGCAUTT against Ets1 | inactive: 0.592
GGAGGUGACUGUUCUUAGATT against Haus1 | inactive: 1.16
GUAGAGAAGGAAGAGUGCCTT against Fshb | inactive: 0.499
GCUAAUACACCUUAUGAGATT against Ube2t | inactive: 0.0183
CCGGUAUUGCUGUUCCUGGTT against Agxt | inactive: 1.26
GGUCAGAUGCAGUGCAAGATT against Cldn4 | inactive: 0.539
GGUUAAGAGUAUCGUCAGCTT against Katnal1 | inactive: -0.76
GCAUGAUGAUGGAGACCGATT against Sox1 | inactive: -1.06
GUGAUUAGCCGAAAGGGCUTT against Olfr1032 | inactive: -0.171

Sequence | z-score
GGGAGUAUGGAAAACUGCATT against Bin3 | inactive: 0.0398
GGAAGCAGAAGCUAAAGUGTT against Ubap1 | active: 2.11
GGUCAAGGAAAAAACACUUTT against Nfs1 | inactive: 0.00789
GGAGAUAAAGAGGAACAUUTT against AI504432 | inactive: 1.01
GGAUAUCUCGGAAAUAGAGTT against Tjp2 | inactive: -1.48
GGAGUAGCUGAAUCUGAAGTT against Atp5e | inactive: 1.57
GCUUCAUGGUGGAUUCAGATT against Adgrb2 | inactive: 1.8
CGAGGUGAUUAAAGAGAUGTT against Ccdc84 | inactive: -0.0752
GGGUUUGAGGCCUUCUAUGTT against Masp2 | inactive: -0.0216
GCCAGCGUACUCUUUUUAUTT against Ocln | inactive: -0.694
GGUUUACAGUAAUUACCAATT against Tex12 | inactive: -0.446
GGGACAUAUCUGAAGCAAGTT against Rps26 | inactive: 0.896
CCUGAUUGAUUUUGUUCCCTT against Vmn1r64 | inactive: 0.922
GGCACUAUGUUGAAAAAAUTT against Rnf43 | inactive: -0.555
GCAUUAUGGAUUGACCUAUTT against Noto | inactive: -1.16
GGACCAGGGCAAAAUAUGATT against Pate6 | inactive: 0.727
GGCUCAAGAAACUUAAGGATT against 4933411G06Rik | inactive: -1.33
GGAAAGUAGUUGUUUUGAUTT against Rpa1 | inactive: -1.09
GCCGAGAAUAGAAGACUCATT against Mtrex | inactive: -1.47
GGCUCUAAGCUAAAUAAAGTT against Kbtbd4 | inactive: -0.249
GGUACAGAUGGUGUACAAUTT against 4930595M18Rik | inactive: 1.58
GGGAGAUGAGUUUUCUGAUTT against Cyp2c70 | inactive: 1.15

4 entries picked at random from those above, as already listed:
Sequence | z-score
GGCACUAUGUUGAAAAAAUTT against Rnf43 | inactive: -0.555
GGAAGCAGAAGCUAAAGUGTT against Ubap1 | active: 2.11
GGAUAUCUCGGAAAUAGAGTT against Tjp2 | inactive: -1.48
GGAAAGUAGUUGUUUUGAUTT against Rpa1 | inactive: -1.09

Following part.

Sequence | z-score
GGAGUUAGUGAGCUUUGAGTT against Zfp426 | inactive: -0.349
GGCAACAGUGCAUUCAAGUTT against Nptx2 | active: 3.39
GGGAUAUCCCAGAACAAGATT against Vps37a | inactive: 0.336
CGUGUACUCUUCUUGUACATT against Ranbp17 | inactive: -1.94
GCUUAAGUUAUGGAUAGCATT against Pex11b | inactive: 0.813
GCUGAUUUCAUUGCAUCCGTT against Olfr483 | active: 2.12
CCAAUUCCUGGGUGCACACTT against Olfr309 | inactive: -0.691
GGAGCUUGGGUUUAAGAUATT against Atad5 | inactive: 0.0095
GGAAGAGUUAGCUUAGUAUTT against Ypel1 | inactive: 0.648
CCUUGAAUCAAUUGAUAGUTT against Lyplal1 | inactive: 1.05
CCAAUAGUUGUGGACAUGATT against Crisp1 | inactive: 1.82
GCAGUUUGACAACUUAAACTT against Mtus1 | inactive: -0.231
CGUUUCAAUCAGAGGACUUTT against Zfp704 | inactive: 0.478
GGAAAGGACAAAAGAAAGATT against Irx3 | inactive: -1.69
GGUAGAGGUUAUAUAGGCATT against Ms4a6d | inactive: 0.282
GGUUCAUCUGAAAACAGGUTT against Osgepl1 | inactive: -0.781
CAGGCAAAAUAUCGAACAATT against Pstpip1 | inactive: 0.509
CGUUAUGCGGUUUUUCCAUTT against Ndufa6 | inactive: 1.57
GCCUGGAUUAUAGGAUCACTT against Tmem208 | inactive: -1.45
GGGCAUAAUGGUUUUUAUGTT against H3c3 | inactive: -0.487
GGAGAGAGGGAAAAAAGAATT against Sox4 | inactive: -0.317
GCAUGAAUAGCAAGCGAAGTT against Klhl18 | inactive: 0.562

Sequence | z-score
CGUGCUAAACAUUGACACCTT against Stx1b | inactive: 1.16
GGAUGAUGACAUCUUCAACTT against B4galt2 | inactive: 0.012
CGAUCAUUAAGCAAGUGAUTT against Abi3bp | inactive: 0.275
GGCUCGCCUGAGAAAGUCUTT against Nudt7 | inactive: 1.16
GGACUUGUACCUGACCUGATT against Iscu | inactive: 0.276
GGAGAUGAUAAAGAUUAACTT against Glyr1 | inactive: 0.59
GGUGCAAUCCUACAGUUCUTT against 1110008P14Rik | inactive: -0.762
CGACAUCUCUAAAGUUAAATT against Map7d3 | inactive: 0.762
CCAAUUUAACUGUUGGUGGTT against Supt5 | inactive: -0.105
GGUAAAAGUCGAUGGCCAGTT against Calr3 | inactive: 1.06
GGAAUAUGACUUCAAGAUGTT against Lmnb2 | active: 4.28
GGAAAAUGUCAAAAUUGGCTT against Rfc4 | inactive: -0.289
CCCAGAAUUGAACUAAAAATT against Mrpl32 | inactive: -0.488
GACAAAGUAACAUCUGUAUTT against Olfr1447 | inactive: -1.6
GCACUUUGUGCUAUAUAAGTT against Mapk14 | inactive: 0.616
GCUAAGACUGUACUGUGACTT against Plekha8 | inactive: -0.351
GGUGGUGGUACUGGUCAAUTT against Dhx58 | inactive: 0.314
GCAAGACUGGCAAAGCUUCTT against Ccdc174 | inactive: 0.368
GAGUCUUGUUUGAAAGAACTT against F730035P03Rik | inactive: -1.17

Source: PubChem BioAssay AID1508600 (Functional Genomics Laboratory (NCATS/FGL), 2020)
